Measured values reported in patent EP0411395A2, “Use of ACE inhibitors for atherosclerosis-prophylaxis” (THERA PATENT-VERWALTUNGS-GmbH, priority 1989, dated 1991).

Assay: Body weight follow-up in the same three-year placebo-controlled study
Type: in vivo, Patienten
Settings: 2 x 3 mg tgl., Idealgewicht: (Größe (cm) -100)-15%
Text: Es wurden 122 übergewichtige Personen ausgesucht, die im Mittel 25 % Übergewicht hatten. Diese Patienten gaben nach Aufklärung ihr Einverständnis, an dieser Studie über 3 Jahre teilzunehmen. Sie hatten bereits 5 bis 10 Versuche einer Gewichtsabnahme hinter sich, die alle […] verlaufen waren. Ein Diabetes mellitus war nach der Definition des WHO-Reports (Techn. Rep. Ser. 646, 1 bis 80, 1980) bei diesen Patienten ausgeschlossen. Sie wurden in zwei gleich starke Gruppen eingeteilt, so daß nach Alter sowie Ausmaß und Dauer des Übergewichts kein Unterschied bestand. Die Patienten wurden in halbjährlichen Abständen ambulant kontrolliert. Wie zu Beginn wurden bei diesen Kontrollen folgende Blutwerte gemessen: Blutsenkung, Blutbild, Nüchternblutzucker, IGTT, Gewicht, Cholesterin und Triglyzeride, Serumglutamat-Oxalat-Transaminase (SGOT), Serumglutamat-Pyruvat-Transaminase (SGPT). Damit wurden den Stoffwechsel beeinträchtigende Krankheiten ausgeschlossen. Als Parameter der Atherosklerose wurde die dopplersonographisch bestimmte maximale Blutströmungsgeschwindigkeit in der Arteria dorsalis pedis verwendet. Alle Patienten hatten eine schmerzfreie Gehstrecke von über 200 m, die Arteria dorsalis pedis war gut tastbar. Oszillographisch fand sich kein Anhalt für eine Mediasklerose. Das Vorliegen einer Neuropathie wurde mit den üblichen klinischen Methoden ausgeschlossen.
Die erste Gruppe erhielt 2 x 3 mg Captopril täglich, die zweite Gruppe entsprechend Placebo. Die Patienten hatten die Auflage, keine den Stoffwechsel beeinträchtigenden Medikamente wie z.B. Diuretika, Betablocker oder dergleichen einzunehmen. In beiden Gruppen schieden über den Zeitraum von 3 Jahren 28 Patienten aus verschiedenen Gründen aus. Die Gruppen veränderten sich dadurch jedoch nicht so sehr, daß sie statistisch nicht mehr auswertbar gewesen wären. […] Die Ergebnisse des Versuchs sind in der nachstehenden Tabelle 1 dargestellt. Tabelle I

Structure (SMILES): C[C@H](CS)C(=O)N1CCC[C@H]1C(=O)O [Captopril, 1-(2S)-3-Mercapto-2-methylpropionyl -L-prolin]
- GEWICHT (in % des Idealgew.) (1985 - 1 (start)): 126,0 ± 1,1 % des Idealgew.
- GEWICHT (in % des Idealgew.) (1986 - 2): 124,1 ± 1,6 % des Idealgew.
- GEWICHT (in % des Idealgew.) (1987 - 2): 125,2 ± 1,1 % des Idealgew.
- GEWICHT (in % des Idealgew.) (1988 - 1): 125,5 ± 1,6 % des Idealgew.
